Reference: the supplement of paper PMC11006884
The entries are a selection whose mix differs from that of the whole data set.

By UniProt entry, the sequences of proteins in these tests, tags left out. Where a name states a change or a piece, a line headed by the entry shows the natural chain unless it says otherwise.
UniProt P62304, whole entry: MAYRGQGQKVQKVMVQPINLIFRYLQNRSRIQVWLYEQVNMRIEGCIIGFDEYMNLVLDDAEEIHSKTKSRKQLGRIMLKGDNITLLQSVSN
UniProt P62316, whole entry, looked up: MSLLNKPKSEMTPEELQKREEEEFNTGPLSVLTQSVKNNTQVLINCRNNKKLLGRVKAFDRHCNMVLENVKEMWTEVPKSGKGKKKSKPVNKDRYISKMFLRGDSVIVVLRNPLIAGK
UniProt P78527, whole entry, looked up: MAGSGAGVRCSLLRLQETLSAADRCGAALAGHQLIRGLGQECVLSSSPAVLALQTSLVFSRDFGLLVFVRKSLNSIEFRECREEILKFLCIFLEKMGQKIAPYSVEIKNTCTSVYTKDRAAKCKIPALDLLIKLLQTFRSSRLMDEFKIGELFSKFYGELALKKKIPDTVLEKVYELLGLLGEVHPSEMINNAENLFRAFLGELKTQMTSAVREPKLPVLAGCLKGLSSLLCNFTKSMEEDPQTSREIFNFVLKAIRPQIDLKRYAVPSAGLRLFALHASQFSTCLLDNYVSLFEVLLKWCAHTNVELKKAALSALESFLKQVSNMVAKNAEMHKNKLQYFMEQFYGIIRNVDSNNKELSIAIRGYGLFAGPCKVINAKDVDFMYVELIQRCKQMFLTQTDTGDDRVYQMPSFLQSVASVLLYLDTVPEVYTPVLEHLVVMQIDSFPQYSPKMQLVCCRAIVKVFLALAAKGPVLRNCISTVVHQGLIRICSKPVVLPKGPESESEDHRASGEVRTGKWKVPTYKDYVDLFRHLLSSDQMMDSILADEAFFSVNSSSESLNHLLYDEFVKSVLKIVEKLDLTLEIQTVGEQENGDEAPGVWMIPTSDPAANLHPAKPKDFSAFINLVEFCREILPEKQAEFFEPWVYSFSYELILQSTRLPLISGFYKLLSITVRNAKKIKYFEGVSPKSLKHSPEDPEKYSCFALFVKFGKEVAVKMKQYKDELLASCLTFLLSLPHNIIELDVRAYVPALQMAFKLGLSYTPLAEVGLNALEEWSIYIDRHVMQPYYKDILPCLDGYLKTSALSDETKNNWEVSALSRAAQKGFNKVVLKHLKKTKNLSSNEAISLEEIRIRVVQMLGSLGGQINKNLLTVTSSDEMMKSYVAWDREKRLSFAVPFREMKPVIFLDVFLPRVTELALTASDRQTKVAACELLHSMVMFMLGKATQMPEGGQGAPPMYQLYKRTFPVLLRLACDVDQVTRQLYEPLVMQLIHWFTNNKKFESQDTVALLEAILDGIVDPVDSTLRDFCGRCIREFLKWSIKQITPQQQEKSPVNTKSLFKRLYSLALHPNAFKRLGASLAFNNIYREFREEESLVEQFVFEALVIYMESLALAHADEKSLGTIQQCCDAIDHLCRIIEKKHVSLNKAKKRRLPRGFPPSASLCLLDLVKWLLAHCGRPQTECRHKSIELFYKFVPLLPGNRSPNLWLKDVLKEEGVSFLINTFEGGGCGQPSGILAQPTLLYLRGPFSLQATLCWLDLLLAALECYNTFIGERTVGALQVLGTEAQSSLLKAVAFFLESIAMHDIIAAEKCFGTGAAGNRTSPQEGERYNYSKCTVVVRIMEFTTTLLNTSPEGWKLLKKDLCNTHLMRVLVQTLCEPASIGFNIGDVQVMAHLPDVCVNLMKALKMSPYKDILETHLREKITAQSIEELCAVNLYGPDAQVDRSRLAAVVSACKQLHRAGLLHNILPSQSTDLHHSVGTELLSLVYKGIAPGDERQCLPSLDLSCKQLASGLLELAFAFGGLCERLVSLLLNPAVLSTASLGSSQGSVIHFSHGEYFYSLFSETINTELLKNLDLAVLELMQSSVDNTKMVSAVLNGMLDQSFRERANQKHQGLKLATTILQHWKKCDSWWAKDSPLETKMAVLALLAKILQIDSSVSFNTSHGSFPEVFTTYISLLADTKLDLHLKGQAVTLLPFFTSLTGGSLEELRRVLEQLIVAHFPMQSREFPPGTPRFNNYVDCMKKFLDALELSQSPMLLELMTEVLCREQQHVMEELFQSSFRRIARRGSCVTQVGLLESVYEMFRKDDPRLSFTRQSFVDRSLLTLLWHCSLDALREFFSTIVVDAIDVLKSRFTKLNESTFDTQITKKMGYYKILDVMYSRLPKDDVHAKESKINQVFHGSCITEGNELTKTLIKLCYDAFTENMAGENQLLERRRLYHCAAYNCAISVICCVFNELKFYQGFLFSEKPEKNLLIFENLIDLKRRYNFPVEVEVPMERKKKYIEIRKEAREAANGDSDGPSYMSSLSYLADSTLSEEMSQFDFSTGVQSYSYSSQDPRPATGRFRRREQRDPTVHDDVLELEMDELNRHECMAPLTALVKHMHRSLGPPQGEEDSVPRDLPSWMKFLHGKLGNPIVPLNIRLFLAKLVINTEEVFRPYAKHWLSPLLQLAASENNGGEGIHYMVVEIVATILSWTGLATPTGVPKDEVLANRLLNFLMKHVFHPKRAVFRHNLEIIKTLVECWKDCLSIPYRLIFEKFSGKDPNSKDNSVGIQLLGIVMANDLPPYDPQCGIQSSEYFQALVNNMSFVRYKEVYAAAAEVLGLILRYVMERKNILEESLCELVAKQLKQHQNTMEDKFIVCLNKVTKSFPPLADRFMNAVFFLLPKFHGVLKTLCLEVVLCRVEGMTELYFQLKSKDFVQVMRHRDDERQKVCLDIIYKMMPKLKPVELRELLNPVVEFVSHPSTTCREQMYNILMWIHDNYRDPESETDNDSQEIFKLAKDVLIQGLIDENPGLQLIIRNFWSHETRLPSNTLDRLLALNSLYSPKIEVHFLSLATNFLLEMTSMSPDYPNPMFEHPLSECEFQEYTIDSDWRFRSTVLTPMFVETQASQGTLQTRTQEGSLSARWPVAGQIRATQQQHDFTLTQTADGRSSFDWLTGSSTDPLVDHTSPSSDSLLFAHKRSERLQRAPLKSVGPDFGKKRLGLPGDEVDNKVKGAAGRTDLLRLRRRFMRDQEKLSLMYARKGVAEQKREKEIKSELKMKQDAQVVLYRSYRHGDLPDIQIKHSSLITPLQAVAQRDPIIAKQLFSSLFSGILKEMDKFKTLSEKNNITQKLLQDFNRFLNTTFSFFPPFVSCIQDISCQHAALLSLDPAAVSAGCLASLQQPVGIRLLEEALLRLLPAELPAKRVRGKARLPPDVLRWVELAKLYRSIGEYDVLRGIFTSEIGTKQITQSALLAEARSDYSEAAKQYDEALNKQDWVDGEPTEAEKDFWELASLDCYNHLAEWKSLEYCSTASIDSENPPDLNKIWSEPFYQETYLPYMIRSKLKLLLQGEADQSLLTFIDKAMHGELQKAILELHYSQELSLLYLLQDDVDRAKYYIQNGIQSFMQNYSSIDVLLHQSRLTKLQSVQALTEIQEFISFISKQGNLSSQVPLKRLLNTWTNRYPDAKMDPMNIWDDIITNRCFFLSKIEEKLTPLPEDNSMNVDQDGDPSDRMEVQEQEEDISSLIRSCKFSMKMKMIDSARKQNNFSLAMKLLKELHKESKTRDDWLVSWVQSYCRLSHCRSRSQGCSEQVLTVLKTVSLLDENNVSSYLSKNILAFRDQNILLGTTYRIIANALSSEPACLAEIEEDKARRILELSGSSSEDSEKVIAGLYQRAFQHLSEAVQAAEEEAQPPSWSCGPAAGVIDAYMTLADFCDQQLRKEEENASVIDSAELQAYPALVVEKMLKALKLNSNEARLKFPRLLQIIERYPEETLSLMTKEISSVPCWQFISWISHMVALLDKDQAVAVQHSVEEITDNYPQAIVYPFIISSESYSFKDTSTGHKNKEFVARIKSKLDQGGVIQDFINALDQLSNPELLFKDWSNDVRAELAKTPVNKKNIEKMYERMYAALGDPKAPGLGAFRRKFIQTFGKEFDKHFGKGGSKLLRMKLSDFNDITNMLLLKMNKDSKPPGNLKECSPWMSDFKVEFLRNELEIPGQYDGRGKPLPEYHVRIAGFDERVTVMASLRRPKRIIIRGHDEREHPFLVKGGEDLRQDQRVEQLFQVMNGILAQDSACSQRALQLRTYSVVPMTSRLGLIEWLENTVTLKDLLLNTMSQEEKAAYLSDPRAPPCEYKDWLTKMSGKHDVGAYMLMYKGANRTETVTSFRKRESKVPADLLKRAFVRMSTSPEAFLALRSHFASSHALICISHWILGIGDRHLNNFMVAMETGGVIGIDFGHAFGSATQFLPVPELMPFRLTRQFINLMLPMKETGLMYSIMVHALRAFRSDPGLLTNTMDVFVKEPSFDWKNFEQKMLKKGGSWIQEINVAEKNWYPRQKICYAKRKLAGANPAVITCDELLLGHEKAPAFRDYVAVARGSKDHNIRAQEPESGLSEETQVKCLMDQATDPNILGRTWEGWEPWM
UniProt Q01581: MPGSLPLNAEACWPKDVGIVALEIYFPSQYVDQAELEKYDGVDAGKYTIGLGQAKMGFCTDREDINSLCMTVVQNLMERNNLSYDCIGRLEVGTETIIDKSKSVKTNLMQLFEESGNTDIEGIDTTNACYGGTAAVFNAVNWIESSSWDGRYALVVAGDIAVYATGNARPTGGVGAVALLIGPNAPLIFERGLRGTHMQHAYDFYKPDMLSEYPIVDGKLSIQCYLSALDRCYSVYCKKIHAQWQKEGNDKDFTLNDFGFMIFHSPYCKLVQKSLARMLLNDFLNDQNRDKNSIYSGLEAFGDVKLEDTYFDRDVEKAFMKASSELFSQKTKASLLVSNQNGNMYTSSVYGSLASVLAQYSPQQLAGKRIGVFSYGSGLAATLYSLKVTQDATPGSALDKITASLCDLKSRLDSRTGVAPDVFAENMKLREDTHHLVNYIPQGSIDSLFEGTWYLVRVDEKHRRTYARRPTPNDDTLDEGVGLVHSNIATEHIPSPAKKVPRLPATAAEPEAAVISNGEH
UniProt Q00341: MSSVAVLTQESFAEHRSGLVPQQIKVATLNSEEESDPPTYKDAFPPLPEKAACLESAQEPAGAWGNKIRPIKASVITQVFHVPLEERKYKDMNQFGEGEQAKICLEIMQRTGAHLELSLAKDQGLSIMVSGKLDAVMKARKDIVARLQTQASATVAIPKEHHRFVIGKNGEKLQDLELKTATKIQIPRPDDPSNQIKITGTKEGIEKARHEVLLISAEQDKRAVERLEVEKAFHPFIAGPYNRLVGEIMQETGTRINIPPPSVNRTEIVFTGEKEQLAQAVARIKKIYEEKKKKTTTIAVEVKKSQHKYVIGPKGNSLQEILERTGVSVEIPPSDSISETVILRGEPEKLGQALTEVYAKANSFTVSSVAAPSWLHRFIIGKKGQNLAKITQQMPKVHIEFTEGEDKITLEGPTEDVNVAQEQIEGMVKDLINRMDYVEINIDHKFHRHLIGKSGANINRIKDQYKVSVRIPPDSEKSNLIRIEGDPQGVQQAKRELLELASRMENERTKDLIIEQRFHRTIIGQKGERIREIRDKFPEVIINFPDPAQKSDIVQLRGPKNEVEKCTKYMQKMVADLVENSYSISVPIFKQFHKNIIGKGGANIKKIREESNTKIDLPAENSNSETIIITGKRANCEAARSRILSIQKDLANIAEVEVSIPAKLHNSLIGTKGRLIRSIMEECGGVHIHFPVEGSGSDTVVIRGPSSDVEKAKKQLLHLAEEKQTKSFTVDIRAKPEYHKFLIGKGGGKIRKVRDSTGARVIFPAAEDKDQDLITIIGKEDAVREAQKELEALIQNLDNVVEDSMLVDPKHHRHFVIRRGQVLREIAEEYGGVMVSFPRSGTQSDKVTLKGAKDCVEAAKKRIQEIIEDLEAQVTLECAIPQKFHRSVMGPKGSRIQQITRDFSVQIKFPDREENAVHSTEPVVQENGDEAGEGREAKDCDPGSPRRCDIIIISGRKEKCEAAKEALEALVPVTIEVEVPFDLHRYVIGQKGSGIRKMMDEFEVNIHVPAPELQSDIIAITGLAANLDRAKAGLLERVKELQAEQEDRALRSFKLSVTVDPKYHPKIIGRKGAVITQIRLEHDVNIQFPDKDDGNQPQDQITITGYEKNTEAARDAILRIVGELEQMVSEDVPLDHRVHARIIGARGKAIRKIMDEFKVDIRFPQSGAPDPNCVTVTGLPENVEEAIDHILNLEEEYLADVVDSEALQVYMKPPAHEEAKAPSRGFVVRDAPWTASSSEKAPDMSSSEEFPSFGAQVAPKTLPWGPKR
UniProt P62993, whole entry, looked up: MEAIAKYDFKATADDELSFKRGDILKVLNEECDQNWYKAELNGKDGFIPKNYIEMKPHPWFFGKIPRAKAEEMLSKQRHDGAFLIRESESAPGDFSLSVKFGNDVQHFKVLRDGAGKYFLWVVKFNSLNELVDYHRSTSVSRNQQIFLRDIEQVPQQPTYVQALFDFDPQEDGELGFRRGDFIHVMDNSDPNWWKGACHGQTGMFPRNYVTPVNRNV
UniProt Q00765: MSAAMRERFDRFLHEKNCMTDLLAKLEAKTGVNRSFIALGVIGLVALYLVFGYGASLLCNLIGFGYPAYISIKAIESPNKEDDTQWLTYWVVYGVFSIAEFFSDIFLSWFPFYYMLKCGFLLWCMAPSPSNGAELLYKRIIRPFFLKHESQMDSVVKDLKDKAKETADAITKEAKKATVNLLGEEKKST

compound: COC(=O)C#Cc1ccccc1 [methyl 3-phenylpropiolate]; experiment: log2 ratio of iodoacetamide-alkyne labeling of the cysteine site, DMSO over compound (competition); higher = stronger covalent engagement of the cysteine by the compound, active = 1 or more; settings: 500 µM; treatment time 1 h; system: HEK293T cell lysate
Outline: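 Reporter intensities give each cysteine's log2 competition ratio as the mean of control channels over the mean of compound channels. The samples were HEK293T lysate (2 mg/mL) given vehicle or electrophile (500 µM, 1 h, ambient temperature), then iodoacetamide alkyne (1 h), followed by click coupling to sCIP-TMT reagents, pooling, trypsin digestion overnight at 37 °C, streptavidin enrichment, acid elution, Orbitrap Eclipse LC-MS/MS with FAIMS and FragPipe quantification. Duplicate channels and three replicates were run, and cysteines quantified in only one replicate were discarded.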

log2 ratio of iodoacetamide-alkyne labeling, inactive:
UniProt P62304_C46 -0.112
UniProt P78368_C54 0.0685
UniProt P62273_C39 0.0855
GALK2 C407 (UniProt Q01415) 0.32
UniProt P62487_C106 0.138
KIF23 C42 (UniProt Q02241) 0.234
XIAP C202 (UniProt P98170) 0.117
ATP2C1 C49 (UniProt P98194) 0.317
RPL18A C109 (UniProt Q02543) -0.19
CNBP C6 (UniProt P62633) 0.0447
EXOSC10 C612 (UniProt Q01780) 0.262
CSNK2B C114 (UniProt P67870) -0.0614
UniProt P63244_C153 0.497
UniProt P62987_C91 0.871
PFKP C123 (UniProt Q01813) -0.112
HNRNPU C389 (UniProt Q00839) 0.378
UniProt P62316_C46 0.0123
PITX1 C77 (UniProt P78337) 0.43
UniProt P68431_C97 -0.0154
UniProt P62910_C96 0.338
MRPS9 C353 (UniProt P82933) -0.032
UniProt P62701_C181 -0.0747
UniProt P78527_C2093 0.236
SORD C106 (UniProt Q00796) 0.238
MRPS5 C211 (UniProt P82675) 0.289
HMGCS1 C224 (UniProt Q01581) -0.00391
UniProt Q00341_C683 -0.0455
UniProt P98164_C4047 0.464
UniProt P62913_C150 0.594
GRB2 C32 (UniProt P62993) 0.167
PFKP C664 (UniProt Q01813) 0.268
NTHL1 C290 (UniProt P78549) 0.0184
CLTC C1102 (UniProt Q00610) -0.0118
REEP5 C18 (UniProt Q00765) 0.482
FOXK1 C665 (UniProt P85037) 0.531
CNBP C97 (UniProt P62633) -0.0492
PPP2CA C196 (UniProt P67775) 0.411

Reprinted from the results shown (3 entries):
log2 ratio of iodoacetamide-alkyne labeling, inactive:
UniProt P62304_C46 -0.112
UniProt P78368_C54 0.0685
UniProt P62273_C39 0.0855
